Experimental data from article PMC10205607, “MAP4K3 inhibits Sirtuin-1 to repress the LKB1–AMPK pathway to promote amino acid-dependent activation of the mTORC1 complex” (Life Science Alliance, 2023).
These are yes or no findings as the source states them, for the method shown. Binding seen in cells or lysates may run through a third protein. Binding can be weak; no strength is given.

Protein sequences, listed by entry. Tags and fused reporters are not part of them. Lines headed by an entry give the natural chain unless they say otherwise; changes in a name come on top.
UniProt Q8IVH8: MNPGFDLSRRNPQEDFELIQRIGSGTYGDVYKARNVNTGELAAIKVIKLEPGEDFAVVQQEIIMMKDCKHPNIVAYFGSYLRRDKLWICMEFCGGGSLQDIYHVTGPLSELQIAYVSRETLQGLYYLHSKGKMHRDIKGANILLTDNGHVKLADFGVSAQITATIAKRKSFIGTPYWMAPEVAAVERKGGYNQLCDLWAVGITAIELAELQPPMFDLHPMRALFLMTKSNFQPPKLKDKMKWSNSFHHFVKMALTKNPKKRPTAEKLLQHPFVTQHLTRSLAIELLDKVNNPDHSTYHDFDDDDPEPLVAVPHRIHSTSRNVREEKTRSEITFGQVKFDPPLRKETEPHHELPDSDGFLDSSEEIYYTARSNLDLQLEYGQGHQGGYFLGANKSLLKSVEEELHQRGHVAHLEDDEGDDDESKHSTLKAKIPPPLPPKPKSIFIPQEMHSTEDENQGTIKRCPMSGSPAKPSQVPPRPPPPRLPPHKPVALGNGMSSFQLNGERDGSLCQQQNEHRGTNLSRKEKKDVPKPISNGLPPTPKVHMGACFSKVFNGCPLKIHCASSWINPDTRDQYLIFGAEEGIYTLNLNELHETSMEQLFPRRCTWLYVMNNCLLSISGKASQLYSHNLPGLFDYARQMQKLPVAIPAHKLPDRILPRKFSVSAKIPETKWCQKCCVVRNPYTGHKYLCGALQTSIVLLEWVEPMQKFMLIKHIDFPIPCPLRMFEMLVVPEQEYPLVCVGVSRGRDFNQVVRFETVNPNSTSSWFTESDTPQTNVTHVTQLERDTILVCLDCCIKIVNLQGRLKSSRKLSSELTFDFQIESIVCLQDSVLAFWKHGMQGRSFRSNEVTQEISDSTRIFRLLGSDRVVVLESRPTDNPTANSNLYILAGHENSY
UniProt Q96EB6: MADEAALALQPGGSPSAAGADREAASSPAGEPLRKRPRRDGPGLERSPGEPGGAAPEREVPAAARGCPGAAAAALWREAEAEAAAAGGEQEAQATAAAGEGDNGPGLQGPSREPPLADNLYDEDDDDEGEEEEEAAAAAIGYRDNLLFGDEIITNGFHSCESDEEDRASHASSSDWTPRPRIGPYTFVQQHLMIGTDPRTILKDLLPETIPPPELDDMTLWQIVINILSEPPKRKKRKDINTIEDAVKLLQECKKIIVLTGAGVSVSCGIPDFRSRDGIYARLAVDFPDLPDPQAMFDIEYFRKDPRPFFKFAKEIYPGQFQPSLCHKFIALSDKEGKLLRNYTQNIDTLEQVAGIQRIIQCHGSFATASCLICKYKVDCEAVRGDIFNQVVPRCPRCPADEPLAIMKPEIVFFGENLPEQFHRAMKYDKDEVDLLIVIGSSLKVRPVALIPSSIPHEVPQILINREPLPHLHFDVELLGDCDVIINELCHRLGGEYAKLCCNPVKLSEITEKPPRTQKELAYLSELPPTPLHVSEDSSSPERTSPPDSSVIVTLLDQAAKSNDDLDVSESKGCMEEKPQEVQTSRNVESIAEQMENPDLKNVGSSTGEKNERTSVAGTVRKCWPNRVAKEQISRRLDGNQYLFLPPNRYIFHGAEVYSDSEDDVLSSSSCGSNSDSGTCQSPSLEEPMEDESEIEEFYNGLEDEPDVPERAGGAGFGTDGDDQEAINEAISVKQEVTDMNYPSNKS

Each substance was assayed against kinase dead (KD)-MAP4K3-FLAG (UniProt Q8IVH8) (assay: co-IP; anti-FLAG IP from lysates of co-transfected HEK293A cells (WT or MAP4K3 k.o.), blot with anti-HA and anti-FLAG; lysis buffer 25 mM HEPES-KOH pH 7.4, 150 mM NaCl, 5 mM EDTA, 1% Triton X-100; 2 h at 4°C).

Substance | binding
SIRT1:465–747 (HA-tagged) (from UniProt Q96EB6 465-747) (domain or fragment) | no binding
SIRT1:1–698 (HA-tagged) (from UniProt Q96EB6 1-698) (domain or fragment) | binds
SIRT1:142–747 (HA-tagged) (from UniProt Q96EB6 142-747) (domain or fragment) | binds
SIRT1:1–465 (HA-tagged) (from UniProt Q96EB6 1-465) (domain or fragment) | binds
SIRT1:1–114 (HA-tagged) (from UniProt Q96EB6 1-114) (domain or fragment) | no binding
